Binding data for two molecules are collected here from paper PMC3119658.

Results are given in words; binding and its absence hold for the method and conditions named. In cells and extracts the contact can be indirect. Some entries that bind do so weakly or less than the wild type.

The target of this experiment is T1, CD95 (human (endogenous in H9 and PBLs)), P25445.
T1 chain: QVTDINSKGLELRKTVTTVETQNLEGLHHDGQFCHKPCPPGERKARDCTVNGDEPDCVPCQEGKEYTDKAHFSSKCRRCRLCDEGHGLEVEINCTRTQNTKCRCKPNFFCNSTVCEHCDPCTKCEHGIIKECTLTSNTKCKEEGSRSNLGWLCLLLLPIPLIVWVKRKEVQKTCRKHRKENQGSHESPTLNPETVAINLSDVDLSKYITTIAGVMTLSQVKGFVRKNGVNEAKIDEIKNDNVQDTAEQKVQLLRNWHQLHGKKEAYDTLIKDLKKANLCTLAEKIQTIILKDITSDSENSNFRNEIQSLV
The experiment in a line: co-IP; H9 T-cells and activated PBLs incubated with 1 µg/ml APO1-3 (15 min, 4°C or 37°C), lysed, CD95 immunoprecipitated with protein A-sepharose beads; immunoblots. As to conditions: remark: other sources report otherwise. (In general: Immunoblotting shows a protein as a band on a membrane.)

B1: FADD, Q13158 1-208 (protein)
chain: MDPFLVLLHSVSSSLSSSELTELKFLCLGRVGKRKLERVQSGLDLFSMLLEQNDLEPGHTELLRELLASLRRHDLLRRVDDFEAGAAAGAAPGEEDLCAAFNVICDNVGKDWRRLARQLKVSDTKIDSIEDRYPRNLTERVRESLRIWKNTEKENATVAHLVGALRSCQMNLVADLVQEVQQARDLQNRSGAMSPMSWNSDASTSEAS
Turning to B1, the binding entry is given as “binds”.

B2: caspase-8, Q14790 1-479 (enzyme)
chain: MDFSRNLYDIGEQLDSEDLASLKFLSLDYIPQRKQEPIKDALMLFQRLQEKRMLEESNLSFLKELLFRINRLDLLITYLNTRKEEMERELQTPGRAQISAYRVMLYQISEEVSRSELRSFKFLLQEEISKCKLDDDMNLLDIFIEMEKRVILGEGKLDILKRVCAQINKSLLKIINDYEEFSKERSSSLEGSPDEFSNGEELCGVMTISDSPREQDSESQTLDKVYQMKSKPRGYCLIINNHNFAKAREKVPKLHSIRDRNGTHLDAGALTTTFEELHFEIKPHDDCTVEQIYEILKIYQLMDHSNMDCFICCILSHGDKGIIYGTDGQEAPIYELTSQFTGLKCPSLAGKPKVFFIQACQGDNYQKGIPVETDSEEQPYLEMDLSSPQTRYIPDEADFLLGMATVNNCVSYRNPAEGTWYIQSLCQSLRERCPRGDDILTILTEVNYEVSNKDDKKNMGKQMPQPTFTLRKKLVFPSD
As to B2, the binding result is listed as “binds”.
